This note sets out measurements from publication PMC3376112.

Amino acid sequences for entries named in this document (tags omitted).
UniProt P42582: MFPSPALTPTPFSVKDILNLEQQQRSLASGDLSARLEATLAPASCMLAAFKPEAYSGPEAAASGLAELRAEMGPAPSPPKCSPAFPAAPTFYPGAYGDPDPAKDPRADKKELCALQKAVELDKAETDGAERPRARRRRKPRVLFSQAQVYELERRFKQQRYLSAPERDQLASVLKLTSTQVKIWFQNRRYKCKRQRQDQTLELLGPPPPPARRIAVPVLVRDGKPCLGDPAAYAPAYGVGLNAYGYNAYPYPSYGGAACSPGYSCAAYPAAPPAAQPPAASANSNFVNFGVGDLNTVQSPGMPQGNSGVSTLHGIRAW

No constants are given. Whether binding was seen depends on the method and setting. Binding seen in cells or lysates may run through a third protein. Some entries that bind do so weakly or less than the wild type. Tags and fused reporters may be left off the sequences shown.

The target of the test is T1, recombinant human O-GlcNAc transferase (OGT-flag) (human) (UniProt O15294).
T1 sequence: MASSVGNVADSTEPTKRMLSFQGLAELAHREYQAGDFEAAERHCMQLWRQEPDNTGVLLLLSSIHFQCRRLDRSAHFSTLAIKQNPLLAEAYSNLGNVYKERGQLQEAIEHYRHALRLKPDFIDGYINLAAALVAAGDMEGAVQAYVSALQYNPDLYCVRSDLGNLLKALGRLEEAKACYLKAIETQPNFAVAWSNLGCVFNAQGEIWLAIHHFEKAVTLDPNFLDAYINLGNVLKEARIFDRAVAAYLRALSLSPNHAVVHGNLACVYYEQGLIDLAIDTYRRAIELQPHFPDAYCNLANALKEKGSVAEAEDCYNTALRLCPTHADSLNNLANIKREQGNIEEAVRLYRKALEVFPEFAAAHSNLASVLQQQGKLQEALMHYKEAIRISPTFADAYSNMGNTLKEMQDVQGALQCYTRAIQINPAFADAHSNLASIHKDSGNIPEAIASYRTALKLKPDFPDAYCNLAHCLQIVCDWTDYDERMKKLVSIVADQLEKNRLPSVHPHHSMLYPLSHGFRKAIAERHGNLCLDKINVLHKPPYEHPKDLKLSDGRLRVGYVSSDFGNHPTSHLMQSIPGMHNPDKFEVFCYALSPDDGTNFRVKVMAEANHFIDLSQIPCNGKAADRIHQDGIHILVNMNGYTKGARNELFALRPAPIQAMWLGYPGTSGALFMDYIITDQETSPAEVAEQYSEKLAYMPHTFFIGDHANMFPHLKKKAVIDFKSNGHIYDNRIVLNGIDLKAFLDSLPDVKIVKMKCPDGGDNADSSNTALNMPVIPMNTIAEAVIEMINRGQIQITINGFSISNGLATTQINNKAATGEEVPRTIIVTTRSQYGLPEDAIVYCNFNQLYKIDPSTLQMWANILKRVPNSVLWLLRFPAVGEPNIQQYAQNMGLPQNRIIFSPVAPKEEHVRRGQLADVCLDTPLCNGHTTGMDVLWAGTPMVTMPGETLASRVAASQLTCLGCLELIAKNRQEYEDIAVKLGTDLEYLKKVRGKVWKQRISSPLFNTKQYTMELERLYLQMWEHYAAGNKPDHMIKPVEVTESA
Briefly: co-IP; lysates of HEK293 cells co-transfected with myc-Nkx2.5 and OGT-flag; immunoprecipitation with anti-Nkx2.5, anti-flag or anti-OGT antibodies at 4°C overnight, protein A/G sepharose beads; immunoblotting for myc, flag and OGT. Background: In western blotting, separated proteins are transferred to a membrane and probed.

On to “recombinant mouse Nkx2.5 (myc-Nkx2.5) (from UniProt P42582 1-318)”, for which the binding entry is “binds”.
